These are yes or no findings as the source states them, for the method shown. Some results given as binding are weak or reduced against the parent protein; the word gives no strength.
Target: T1, mouse IRF-3, endogenous (mouse (endogenous in MEF)), P70671
T1 chain: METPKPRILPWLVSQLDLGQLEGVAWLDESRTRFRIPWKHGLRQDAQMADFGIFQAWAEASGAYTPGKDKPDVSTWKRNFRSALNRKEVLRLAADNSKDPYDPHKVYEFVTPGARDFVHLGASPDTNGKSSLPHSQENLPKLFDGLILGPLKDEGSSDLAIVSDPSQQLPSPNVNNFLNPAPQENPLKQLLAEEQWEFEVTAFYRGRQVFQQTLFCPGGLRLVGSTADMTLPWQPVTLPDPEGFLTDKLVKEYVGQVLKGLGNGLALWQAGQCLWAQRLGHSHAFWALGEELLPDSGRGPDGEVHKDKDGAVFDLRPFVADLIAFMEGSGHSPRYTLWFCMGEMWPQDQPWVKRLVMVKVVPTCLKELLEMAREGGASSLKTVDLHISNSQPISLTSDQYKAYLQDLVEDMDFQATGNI
Experiment: native gel or EMSA
Settings: remark: other sources report otherwise

binding: binds
B1: mouse IRF-3, endogenous, P70671 1-419 (protein)
chain: T1 chain
